This is one part of the list.
The targets below were run with Cc1cc(Nc2cc(N3CCN(C)CC3)nc(Sc3ccc(NC(=O)C4CC4)cc3)n2)n[nH]1 [tozasertib] (assay: log2 fold change, soluble protein after heating vs DMSO (PISA); higher = thermal stabilisation; K562 lysate, 10 uM; active = over 0.2 and 3.5 SD of the protein, either way, in both replicates (recomputed)).
How it was run: (§1)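 Following dounce homogenisation of K562 pellets in PBS pH 7.4 with 1 mM MgCl2, crude extract at 1 mg/mL protein was incubated for 30 min with 10 μM compound. Aliquots were then heated for 3 min over 48°C-58°C and pooled, NP-40 was added to 0.5% at 4°C, and soluble protein was recovered as the supernatant at 21,000xg for 90 min. Channel-sum-equalised TMTpro 16plex LC-MS/MS quantified this protein. Each value, from duplicates, is a log-two fold change in thermal stability relative to solvent controls.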

The chains behind the UniProt entries cited, without tags or fusion partners. Where a name states a change or a piece, a line headed by the entry shows the natural chain unless it says otherwise.
UniProt Q9P0J7: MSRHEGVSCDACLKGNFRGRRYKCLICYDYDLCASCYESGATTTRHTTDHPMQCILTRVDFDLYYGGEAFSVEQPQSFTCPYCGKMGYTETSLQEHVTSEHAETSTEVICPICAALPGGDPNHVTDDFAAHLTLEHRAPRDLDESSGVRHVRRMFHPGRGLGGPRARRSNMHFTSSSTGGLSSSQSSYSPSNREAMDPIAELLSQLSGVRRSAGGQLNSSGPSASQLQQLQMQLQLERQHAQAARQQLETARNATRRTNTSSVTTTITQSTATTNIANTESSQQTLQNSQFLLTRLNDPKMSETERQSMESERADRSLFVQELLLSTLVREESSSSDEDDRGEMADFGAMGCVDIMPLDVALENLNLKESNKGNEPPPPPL
UniProt Q8WYB5, whole entry, looked up: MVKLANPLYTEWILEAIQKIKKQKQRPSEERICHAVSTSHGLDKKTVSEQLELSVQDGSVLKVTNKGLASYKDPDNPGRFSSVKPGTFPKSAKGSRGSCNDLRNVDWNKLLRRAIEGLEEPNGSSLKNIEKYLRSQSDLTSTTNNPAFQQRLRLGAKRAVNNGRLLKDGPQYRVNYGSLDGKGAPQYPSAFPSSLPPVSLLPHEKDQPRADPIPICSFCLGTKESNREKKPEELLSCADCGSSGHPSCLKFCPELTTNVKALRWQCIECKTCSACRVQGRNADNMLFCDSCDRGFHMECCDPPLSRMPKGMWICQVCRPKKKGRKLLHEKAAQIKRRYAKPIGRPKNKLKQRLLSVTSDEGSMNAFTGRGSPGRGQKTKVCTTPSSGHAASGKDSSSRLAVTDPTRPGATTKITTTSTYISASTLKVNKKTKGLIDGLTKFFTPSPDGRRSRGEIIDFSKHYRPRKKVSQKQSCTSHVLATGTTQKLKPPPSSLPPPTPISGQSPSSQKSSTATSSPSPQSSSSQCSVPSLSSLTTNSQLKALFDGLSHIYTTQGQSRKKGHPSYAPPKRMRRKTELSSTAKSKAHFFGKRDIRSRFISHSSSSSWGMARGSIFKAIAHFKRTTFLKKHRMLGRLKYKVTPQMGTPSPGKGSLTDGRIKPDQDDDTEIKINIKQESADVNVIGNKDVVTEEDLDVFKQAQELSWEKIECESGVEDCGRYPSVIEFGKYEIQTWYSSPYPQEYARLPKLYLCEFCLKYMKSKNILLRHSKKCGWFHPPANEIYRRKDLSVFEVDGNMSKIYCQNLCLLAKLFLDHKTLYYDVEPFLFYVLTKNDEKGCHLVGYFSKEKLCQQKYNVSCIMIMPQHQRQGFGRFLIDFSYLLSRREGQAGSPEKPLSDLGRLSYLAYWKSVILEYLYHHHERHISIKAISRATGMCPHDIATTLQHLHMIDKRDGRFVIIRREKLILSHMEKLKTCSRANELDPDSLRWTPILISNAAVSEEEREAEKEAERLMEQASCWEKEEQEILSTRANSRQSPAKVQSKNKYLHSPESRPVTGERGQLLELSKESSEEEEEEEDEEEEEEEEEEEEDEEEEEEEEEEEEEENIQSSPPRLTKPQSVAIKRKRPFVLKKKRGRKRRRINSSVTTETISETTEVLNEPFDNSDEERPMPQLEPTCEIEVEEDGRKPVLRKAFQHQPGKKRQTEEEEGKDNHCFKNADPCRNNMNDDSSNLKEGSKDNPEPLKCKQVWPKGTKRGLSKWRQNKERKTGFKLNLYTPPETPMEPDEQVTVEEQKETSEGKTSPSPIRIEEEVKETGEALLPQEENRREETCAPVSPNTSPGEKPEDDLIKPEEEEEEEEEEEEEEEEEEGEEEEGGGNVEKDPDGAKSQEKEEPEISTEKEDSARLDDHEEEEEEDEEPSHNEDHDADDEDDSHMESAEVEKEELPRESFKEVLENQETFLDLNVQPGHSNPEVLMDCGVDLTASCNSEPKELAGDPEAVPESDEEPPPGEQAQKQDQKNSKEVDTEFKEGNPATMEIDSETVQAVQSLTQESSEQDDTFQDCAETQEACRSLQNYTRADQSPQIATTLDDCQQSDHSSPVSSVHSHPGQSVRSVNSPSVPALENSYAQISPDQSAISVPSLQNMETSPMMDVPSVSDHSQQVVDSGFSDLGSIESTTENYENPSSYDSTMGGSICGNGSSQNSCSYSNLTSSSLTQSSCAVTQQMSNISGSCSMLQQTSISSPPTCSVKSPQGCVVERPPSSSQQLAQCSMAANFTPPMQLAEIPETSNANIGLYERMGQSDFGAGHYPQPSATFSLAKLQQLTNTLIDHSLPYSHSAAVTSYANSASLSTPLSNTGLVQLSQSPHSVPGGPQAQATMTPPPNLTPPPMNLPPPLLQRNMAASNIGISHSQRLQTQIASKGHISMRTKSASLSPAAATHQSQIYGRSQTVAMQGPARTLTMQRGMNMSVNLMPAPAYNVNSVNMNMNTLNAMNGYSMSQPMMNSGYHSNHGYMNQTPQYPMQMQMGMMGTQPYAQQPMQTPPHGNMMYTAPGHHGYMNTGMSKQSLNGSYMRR
UniProt Q14643, whole entry, looked up: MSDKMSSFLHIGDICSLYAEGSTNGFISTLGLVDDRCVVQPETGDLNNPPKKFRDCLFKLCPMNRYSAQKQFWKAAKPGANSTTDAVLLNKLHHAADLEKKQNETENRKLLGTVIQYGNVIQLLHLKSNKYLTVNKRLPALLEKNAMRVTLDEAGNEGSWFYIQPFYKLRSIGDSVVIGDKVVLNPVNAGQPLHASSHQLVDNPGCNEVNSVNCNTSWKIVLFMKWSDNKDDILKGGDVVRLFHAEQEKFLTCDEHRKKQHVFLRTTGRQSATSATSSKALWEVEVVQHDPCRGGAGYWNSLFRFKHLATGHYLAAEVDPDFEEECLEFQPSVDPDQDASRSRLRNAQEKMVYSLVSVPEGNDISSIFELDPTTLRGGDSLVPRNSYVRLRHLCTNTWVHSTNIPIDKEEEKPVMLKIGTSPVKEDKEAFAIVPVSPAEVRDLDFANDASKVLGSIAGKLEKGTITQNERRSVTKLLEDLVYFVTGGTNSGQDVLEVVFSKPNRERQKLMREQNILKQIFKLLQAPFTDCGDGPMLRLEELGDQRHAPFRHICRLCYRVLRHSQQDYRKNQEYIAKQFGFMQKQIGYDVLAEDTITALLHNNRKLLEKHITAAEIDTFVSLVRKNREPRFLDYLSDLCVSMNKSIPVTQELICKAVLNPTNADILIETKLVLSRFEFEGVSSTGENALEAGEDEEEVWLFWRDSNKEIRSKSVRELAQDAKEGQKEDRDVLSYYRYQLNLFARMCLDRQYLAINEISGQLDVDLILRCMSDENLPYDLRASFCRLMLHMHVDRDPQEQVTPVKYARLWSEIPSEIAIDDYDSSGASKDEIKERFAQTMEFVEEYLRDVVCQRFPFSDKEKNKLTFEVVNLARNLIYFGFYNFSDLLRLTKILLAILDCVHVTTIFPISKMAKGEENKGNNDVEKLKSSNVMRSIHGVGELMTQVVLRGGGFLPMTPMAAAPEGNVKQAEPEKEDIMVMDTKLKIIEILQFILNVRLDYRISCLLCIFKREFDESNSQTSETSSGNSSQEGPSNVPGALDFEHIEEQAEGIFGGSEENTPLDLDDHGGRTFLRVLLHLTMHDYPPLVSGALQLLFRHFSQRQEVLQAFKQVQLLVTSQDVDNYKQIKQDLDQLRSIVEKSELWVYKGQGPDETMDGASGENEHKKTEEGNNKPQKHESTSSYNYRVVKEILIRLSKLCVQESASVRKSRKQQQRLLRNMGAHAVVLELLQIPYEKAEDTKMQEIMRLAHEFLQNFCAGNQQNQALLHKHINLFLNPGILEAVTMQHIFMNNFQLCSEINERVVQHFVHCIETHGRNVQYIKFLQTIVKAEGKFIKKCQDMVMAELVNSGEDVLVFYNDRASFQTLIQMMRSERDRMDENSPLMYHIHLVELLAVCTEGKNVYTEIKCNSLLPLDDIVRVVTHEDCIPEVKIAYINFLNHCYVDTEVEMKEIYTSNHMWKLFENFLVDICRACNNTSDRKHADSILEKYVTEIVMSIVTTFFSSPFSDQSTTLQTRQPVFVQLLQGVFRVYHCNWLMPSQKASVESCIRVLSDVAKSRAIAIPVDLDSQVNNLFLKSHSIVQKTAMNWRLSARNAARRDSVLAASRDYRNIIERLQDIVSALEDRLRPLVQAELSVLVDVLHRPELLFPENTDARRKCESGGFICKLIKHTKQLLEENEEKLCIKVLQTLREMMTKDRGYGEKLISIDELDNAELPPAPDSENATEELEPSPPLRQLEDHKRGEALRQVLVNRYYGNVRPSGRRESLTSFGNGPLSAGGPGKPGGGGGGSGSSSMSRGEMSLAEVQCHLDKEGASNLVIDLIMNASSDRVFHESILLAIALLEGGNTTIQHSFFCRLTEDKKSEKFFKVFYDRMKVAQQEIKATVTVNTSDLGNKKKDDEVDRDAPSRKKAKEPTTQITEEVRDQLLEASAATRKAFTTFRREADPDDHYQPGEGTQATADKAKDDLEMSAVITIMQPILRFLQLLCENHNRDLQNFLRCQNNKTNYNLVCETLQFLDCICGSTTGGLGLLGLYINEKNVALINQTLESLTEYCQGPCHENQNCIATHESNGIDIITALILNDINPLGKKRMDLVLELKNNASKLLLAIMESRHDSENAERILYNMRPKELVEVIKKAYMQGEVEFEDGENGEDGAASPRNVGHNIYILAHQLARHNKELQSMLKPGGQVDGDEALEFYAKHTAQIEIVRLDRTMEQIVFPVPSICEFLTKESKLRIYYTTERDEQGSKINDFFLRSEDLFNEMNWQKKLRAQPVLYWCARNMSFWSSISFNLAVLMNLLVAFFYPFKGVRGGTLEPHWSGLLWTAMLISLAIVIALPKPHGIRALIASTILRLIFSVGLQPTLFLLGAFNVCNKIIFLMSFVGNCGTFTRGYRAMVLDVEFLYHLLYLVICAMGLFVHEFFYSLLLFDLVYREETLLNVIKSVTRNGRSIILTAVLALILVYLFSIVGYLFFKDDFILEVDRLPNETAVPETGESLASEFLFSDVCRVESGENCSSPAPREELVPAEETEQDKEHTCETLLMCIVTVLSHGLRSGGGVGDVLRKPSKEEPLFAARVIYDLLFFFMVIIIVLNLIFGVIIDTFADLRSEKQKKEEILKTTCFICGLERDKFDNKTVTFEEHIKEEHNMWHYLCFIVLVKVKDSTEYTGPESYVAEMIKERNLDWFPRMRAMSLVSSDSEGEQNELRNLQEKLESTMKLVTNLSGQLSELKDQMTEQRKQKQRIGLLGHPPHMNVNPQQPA
UniProt Q92551: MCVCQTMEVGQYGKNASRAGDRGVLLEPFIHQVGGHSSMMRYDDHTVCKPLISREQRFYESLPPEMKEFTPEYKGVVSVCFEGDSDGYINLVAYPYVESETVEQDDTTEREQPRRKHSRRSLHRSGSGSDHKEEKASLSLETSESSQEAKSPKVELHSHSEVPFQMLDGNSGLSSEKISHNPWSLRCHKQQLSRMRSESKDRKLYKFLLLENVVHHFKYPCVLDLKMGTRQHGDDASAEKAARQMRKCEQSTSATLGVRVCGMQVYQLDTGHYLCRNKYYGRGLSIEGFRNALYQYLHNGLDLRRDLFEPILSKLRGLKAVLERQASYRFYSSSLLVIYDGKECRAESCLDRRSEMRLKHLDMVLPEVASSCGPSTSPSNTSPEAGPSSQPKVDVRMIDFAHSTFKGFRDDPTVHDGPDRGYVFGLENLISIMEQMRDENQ
UniProt Q8WVZ9: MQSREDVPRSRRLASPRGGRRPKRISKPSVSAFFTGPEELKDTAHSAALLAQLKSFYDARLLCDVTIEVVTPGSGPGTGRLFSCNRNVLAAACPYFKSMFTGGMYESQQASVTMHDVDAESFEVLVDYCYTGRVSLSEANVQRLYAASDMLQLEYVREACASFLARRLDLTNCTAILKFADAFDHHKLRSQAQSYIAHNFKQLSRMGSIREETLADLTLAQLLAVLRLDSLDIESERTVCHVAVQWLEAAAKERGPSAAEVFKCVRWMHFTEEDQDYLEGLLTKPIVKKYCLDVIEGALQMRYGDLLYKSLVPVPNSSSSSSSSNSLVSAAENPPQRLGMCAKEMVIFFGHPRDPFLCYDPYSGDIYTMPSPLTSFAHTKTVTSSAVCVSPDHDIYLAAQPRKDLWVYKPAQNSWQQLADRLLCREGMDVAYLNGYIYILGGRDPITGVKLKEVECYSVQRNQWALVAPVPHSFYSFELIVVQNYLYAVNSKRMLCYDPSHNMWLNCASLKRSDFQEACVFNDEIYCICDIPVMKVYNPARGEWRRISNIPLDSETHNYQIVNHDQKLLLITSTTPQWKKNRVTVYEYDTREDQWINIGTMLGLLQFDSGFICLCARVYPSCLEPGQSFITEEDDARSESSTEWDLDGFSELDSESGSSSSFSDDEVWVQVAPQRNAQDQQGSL
UniProt P24390: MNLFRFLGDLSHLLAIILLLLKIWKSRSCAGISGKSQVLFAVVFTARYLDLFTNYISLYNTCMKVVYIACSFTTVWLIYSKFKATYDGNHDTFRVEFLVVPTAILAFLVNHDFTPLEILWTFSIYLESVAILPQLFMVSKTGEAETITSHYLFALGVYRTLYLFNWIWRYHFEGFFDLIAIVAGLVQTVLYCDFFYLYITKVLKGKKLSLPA

Target | log2 fold change
KCTD7 (UniProt Q96MP8) | inactive: 0.001
JAG2 (UniProt Q9Y219) | inactive: -0.101
KCNK1 (UniProt O00180) | inactive: -0.068
KCMF1 (UniProt Q9P0J7) | inactive: -0.032
ITGAE (UniProt P38570) | inactive: 0.071
KAT2A (UniProt Q92830) | inactive: -0.061
JTB (UniProt O76095) | inactive: 0.002
KDM3B (UniProt Q7LBC6) | inactive: 0.006
KDM1B (UniProt Q8NB78) | inactive: -0.058
JUN (UniProt P05412) | inactive: 0.107
ITM2C (UniProt Q9NQX7) | inactive: 0.037
KAT6B (UniProt Q8WYB5) | inactive: -0.045
IPO5 (UniProt H0Y3V4) | inactive: -0.008
IST1 isoform 2 (UniProt P53990) | inactive: 0.203
ITPR1 (UniProt Q14643) | inactive: -0.043
JAGN1 (UniProt Q8N5M9) | inactive: -0.09
IQGAP1 (UniProt P46940) | inactive: 0.026
IP6K1 (UniProt Q92551) | inactive: 0.095
ITPRID2 (UniProt P28290) | inactive: 0.058
JMJD7 (UniProt P0C870) | inactive: -0.191
KBTBD7 (UniProt Q8WVZ9) | inactive: 0.14
ITIH2 (UniProt P19823) | inactive: 0.022
KATNBL1 (UniProt Q9H079) | inactive: 0.169
JMJD4 (UniProt Q9H9V9) | inactive: -0.205
KDELR3 (UniProt O43731) | inactive: 0.101
KDELR1 (UniProt P24390) | inactive: 0
KAT14 (UniProt Q9H8E8) | inactive: -0.008
ITM2A (UniProt O43736) | inactive: -0.025
ITGB1BP1 (UniProt O14713) | inactive: 0.107

These targets were tested with Cc1ccc(-n2nc(C(C)(C)C)cc2NC(=O)Nc2ccc(OCCN3CCOCC3)c3ccccc23)cc1 [doramapimod] in the same assay as above.
How it was run: as §1

Target | log2 fold change
KCTD7 (UniProt Q96MP8) | inactive: 0.005
JAG2 (UniProt Q9Y219) | inactive: 0.32
KCMF1 (UniProt Q9P0J7) | inactive: 0.04
KAT2A (UniProt Q92830) | inactive: -0.168
JTB (UniProt O76095) | inactive: 0.016
KDM3B (UniProt Q7LBC6) | inactive: -0.036
KDM1B (UniProt Q8NB78) | inactive: 0.014
JUN (UniProt P05412) | inactive: 0.011
ITM2C (UniProt Q9NQX7) | inactive: -0.083
ITGA2B (UniProt P08514) | inactive: 0.054
IRS2 (UniProt Q9Y4H2) | inactive: 0.019
KAT6B (UniProt Q8WYB5) | inactive: 0.054
IQGAP3 (UniProt Q86VI3) | inactive: 0.021
IST1 isoform 2 (UniProt P53990) | inactive: 0.056
ITPR1 (UniProt Q14643) | inactive: -0.067
ITPR3 (UniProt Q14573) | inactive: -0.019
JAGN1 (UniProt Q8N5M9) | inactive: -0.041
IQGAP1 (UniProt P46940) | inactive: -0.013
JAK3 (UniProt P52333) | inactive: -0.081
IP6K1 (UniProt Q92551) | inactive: 0.088
KBTBD7 (UniProt Q8WVZ9) | inactive: -0.05
KCNK5 (UniProt O95279) | inactive: 0.087
KDF1 (UniProt Q8NAX2) | inactive: -0.014
ITIH2 (UniProt P19823) | inactive: 0.035
KCNN4 (UniProt O15554) | inactive: -0.015
KATNBL1 (UniProt Q9H079) | inactive: -0.069
JMJD4 (UniProt Q9H9V9) | inactive: 0.137
KDELR3 (UniProt O43731) | inactive: -0.104
KDELR1 (UniProt P24390) | inactive: 0.034

These targets were tested with Cc1ccc(NC(=O)c2ccc(CN3CC[C@H](N(C)C)C3)c(C(F)(F)F)c2)cc1Nc1nccc(-c2cncnc2)n1 [bafetinib] in the same assay as above.
How it was run: as §1

Target | log2 fold change
JAG2 (UniProt Q9Y219) | inactive: 0.045
KCNK1 (UniProt O00180) | inactive: 0.006
KCMF1 (UniProt Q9P0J7) | inactive: -0.047
ITGAE (UniProt P38570) | inactive: -0.215
JTB (UniProt O76095) | inactive: -0.098
KDM3B (UniProt Q7LBC6) | inactive: -0.074
KDM1B (UniProt Q8NB78) | inactive: -0.001
ITM2C (UniProt Q9NQX7) | inactive: -0.532
IRS2 (UniProt Q9Y4H2) | inactive: 0.031
KAT6B (UniProt Q8WYB5) | inactive: -0.164
IQGAP3 (UniProt Q86VI3) | inactive: 0.132
ITPR1 (UniProt Q14643) | inactive: -0.128
IQUB (UniProt Q8NA54) | inactive: 0.057
JAGN1 (UniProt Q8N5M9) | inactive: -0.029
IQGAP1 (UniProt P46940) | inactive: 0.001
JAK3 (UniProt P52333) | inactive: 0.14
IP6K1 (UniProt Q92551) | inactive: -0.004
ITPRID2 (UniProt P28290) | inactive: -0.044
JMJD7 (UniProt P0C870) | inactive: -0.055
KBTBD7 (UniProt Q8WVZ9) | inactive: -0.213
KCNK5 (UniProt O95279) | inactive: -0.025
IQCD (UniProt Q96DY2) | inactive: -0.266
KDF1 (UniProt Q8NAX2) | inactive: -0.001
ITIH2 (UniProt P19823) | inactive: -0.045
JMJD4 (UniProt Q9H9V9) | inactive: 0.051
KDELR1 (UniProt P24390) | inactive: 0.047
KAT14 (UniProt Q9H8E8) | inactive: -0.115
ITM2A (UniProt O43736) | inactive: -0.147
ITGB1BP1 (UniProt O14713) | inactive: 0.155

Source: the supplement of paper PMC10849652
